The values that follow come from PMC10696396, “HilE represses the activity of the Salmonella virulence regulator HilD via a mechanism distinct from that of intestinal long-chain fatty acids” (The Journal of Biological Chemistry, 2023).

Assay [1] addresses T1, EYFP-HilD (Salmonella enterica) (UniProt P0CL08).
T1 sequence: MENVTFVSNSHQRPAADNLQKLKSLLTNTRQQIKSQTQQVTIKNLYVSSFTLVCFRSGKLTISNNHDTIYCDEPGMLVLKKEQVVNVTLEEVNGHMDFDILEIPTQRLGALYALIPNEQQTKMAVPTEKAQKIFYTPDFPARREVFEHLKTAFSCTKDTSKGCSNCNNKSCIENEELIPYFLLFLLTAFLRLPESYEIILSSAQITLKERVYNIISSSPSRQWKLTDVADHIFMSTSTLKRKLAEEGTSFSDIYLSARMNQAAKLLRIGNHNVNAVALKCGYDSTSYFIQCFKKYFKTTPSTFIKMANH
In words: MST; homodimerization: unlabeled HilD titrated against EYFP-HilD preincubated with 100 μM oleic acid; MST on-time 1.5 s, 25 °C; both purified.

Assay [2] concerns the target T1, EYFP-HilD (Salmonella enterica). As to the kind of experiment: MST; homodimerization: unlabeled HilD (3.05 nM to 100 μM) titrated against 50 nM EYFP-HilD preincubated with 10 μM HilE; 25 °C; both purified.

These are yes or no findings as the source states them, for the method shown. Tags and fused reporters may be left off the sequences shown.

B1: HilD (full-length, unfused) (protein, UniProt P0CL08 1-309)
chain: T1 sequence
On to B1, for which the binding entry was “no binding (condition: with 100 μM oleic acid)” in assay [1] and “no binding (condition: with 10 μM HilE)” in assay [2].
